# Assay results as given in the supplement of paper PMC8728848.
# The list shows a part of the results.
# B1: Clone646PsrP (Streptococcus pneumoniae) (protein)
# chain: MDHHHHHHHHASENLYFQGAPAINASLNIAKSETKVYTGEGVDSVYRVPIYYKLKVTNDGSKLTFTYTVTYVNPKTNDLGNISSMRPGYSIYNSGTSTQTMLTLGSDLGKPSGVKNYITDKNGRQVLSYNTSTMTTQGSGYTWGNGAQMNGFFAKKGYGLTSSWTVPITGTDTSFTFTPYAARTDRIGINYFNGGGKVVESSTTSQSLSQSKSLSVSAS
# Legend:
# Assay in all cases: glycan array binding signal (z-score within array); higher = stronger binding
# Settings in all cases: glycan notation: IUPAC condensed, linker removed
# [1] = target: Gal(b1-4)GlcNAc(b1-3)Gal(b1-4)GlcNAc(b1-2)[Gal(b1-4)GlcNAc(b1-3)Gal(b1-4)GlcNAc(b1-6)]Man(a1-6)[Gal(b1-4)GlcNAc(b1-3)Gal(b1-4)GlcNAc(b1-2)Man(a1-3)]Man(b1-4)GlcNAc(b1-4)GlcNAc
# Outline: (§1)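 From the Consortium for Functional Glycomics database, 3228 arrays were curated, keeping only those whose protein sequence was available. Binding is given as a within-array Z-score averaged across arrays sharing a protein sequence and across linkers. Negative Z-scores can be read as non-binding.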
# [2] = target: Gal(b1-4)GlcNAc(b1-3)Gal(b1-4)GlcNAc(b1-2)[Gal(b1-4)GlcNAc(b1-3)Gal(b1-4)GlcNAc(b1-6)]Man(a1-6)[Gal(b1-4)GlcNAc(b1-3)Gal(b1-4)GlcNAc(b1-2)Man(a1-3)]Man(b1-4)GlcNAc(b1-4)[Fuc(a1-6)]GlcNAc
# Outline: as §1
# [3] = target: Gal(b1-4)GlcNAc(b1-3)Gal(b1-4)GlcNAc(b1-3)Gal(b1-4)GlcNAc
# Outline: as §1
# [4] = target: Gal(b1-4)GlcNAc(b1-3)Gal(b1-4)GlcNAc(b1-3)Gal(b1-4)GlcNAc(b1-2)Man(a1-3)[Gal(b1-4)GlcNAc(b1-3)Gal(b1-4)GlcNAc(b1-3)Gal(b1-4)GlcNAc(b1-2)Man(a1-6)]Man(b1-4)GlcNAc(b1-4)GlcNAc
# Outline: as §1
# [5] = target: Gal(b1-4)GlcNAc(b1-3)Gal(b1-4)GlcNAc(b1-3)Gal(b1-4)GlcNAc(b1-2)Man(a1-3)[Gal(b1-4)GlcNAc(b1-3)Gal(b1-4)GlcNAc(b1-3)Gal(b1-4)GlcNAc(b1-2)Man(a1-6)]Man(b1-4)GlcNAc(b1-4)[Fuc(a1-6)]GlcNAc
# Outline: as §1
# [6] = target: Gal(b1-4)GlcNAc(b1-3)Gal(b1-4)GlcNAc(b1-3)Gal(b1-4)GlcNAc(b1-2)[Gal(b1-4)GlcNAc(b1-3)Gal(b1-4)GlcNAc(b1-3)Gal(b1-4)GlcNAc(b1-6)]Man(a1-6)[Gal(b1-4)GlcNAc(b1-3)Gal(b1-4)GlcNAc(b1-3)Gal(b1-4)GlcNAc(b1-2)Man(a1-3)]Man(b1-4)GlcNAc(b1-4)[Fuc(a1-6)]GlcNAc
# Outline: as §1
# [7] = target: Gal(b1-4)GlcNAc(b1-3)Gal(b1-4)GlcNAc(b1-3)Gal(b1-4)GlcNAc(b1-3)Gal(b1-4)GlcNAc(b1-2)Man(a1-3)[Gal(b1-4)GlcNAc(b1-3)Gal(b1-4)GlcNAc(b1-3)Gal(b1-4)GlcNAc(b1-3)Gal(b1-4)GlcNAc(b1-2)Man(a1-6)]Man(b1-4)GlcNAc(b1-4)GlcNAc
# Outline: as §1
# [8] = target: Gal(b1-4)GlcNAc(b1-3)Gal(b1-4)GlcNAc(b1-3)Gal(b1-4)GlcNAc(b1-3)Gal(b1-4)GlcNAc(b1-2)Man(a1-3)[Gal(b1-4)GlcNAc(b1-3)Gal(b1-4)GlcNAc(b1-3)Gal(b1-4)GlcNAc(b1-3)Gal(b1-4)GlcNAc(b1-2)Man(a1-6)]Man(b1-4)GlcNAc(b1-4)[Fuc(a1-6)]GlcNAc
# Outline: as §1
# [9] = target: Gal(b1-4)GlcNAc(b1-3)Gal(b1-4)GlcNAc(b1-3)Gal(b1-4)GlcNAc(b1-3)Gal(b1-4)GlcNAc(b1-2)[Gal(b1-4)GlcNAc(b1-3)Gal(b1-4)GlcNAc(b1-3)Gal(b1-4)GlcNAc(b1-3)Gal(b1-4)GlcNAc(b1-6)]Man(a1-6)[Gal(b1-4)GlcNAc(b1-3)Gal(b1-4)GlcNAc(b1-3)Gal(b1-4)GlcNAc(b1-3)Gal(b1-4)GlcNAc(b1-2)Man(a1-3)]Man(b1-4)GlcNAc(b1-4)[Fuc(a1-6)]GlcNAc
# Outline: as §1
# [10] = target: Gal(b1-4)GlcNAc(b1-3)Gal(b1-4)GlcNAc(b1-3)Gal(b1-4)GlcNAc(b1-3)Gal(b1-4)GlcNAc(b1-3)Gal(b1-4)GlcNAc(b1-2)Man(a1-3)[Gal(b1-4)GlcNAc(b1-3)Gal(b1-4)GlcNAc(b1-3)Gal(b1-4)GlcNAc(b1-3)Gal(b1-4)GlcNAc(b1-3)Gal(b1-4)GlcNAc(b1-2)Man(a1-6)]Man(b1-4)GlcNAc(b1-4)GlcNAc
# Outline: as §1
# [11] = target: Gal(b1-4)GlcNAc(b1-3)Gal(b1-4)GlcNAc(b1-3)Gal(b1-4)GlcNAc(b1-3)Gal(b1-4)GlcNAc(b1-3)Gal(b1-4)GlcNAc(b1-2)Man(a1-3)[Gal(b1-4)GlcNAc(b1-3)Gal(b1-4)GlcNAc(b1-3)Gal(b1-4)GlcNAc(b1-3)Gal(b1-4)GlcNAc(b1-3)Gal(b1-4)GlcNAc(b1-2)Man(a1-6)]Man(b1-4)GlcNAc(b1-4)[Fuc(a1-6)]GlcNAc
# Outline: as §1
# [12] = target: Gal(b1-4)GlcNAc(b1-3)Gal(b1-4)GlcNAc(b1-3)Gal(b1-4)GlcNAc(b1-3)Gal(b1-4)GlcNAc(b1-3)Gal(b1-4)GlcNAc(b1-2)[Gal(b1-4)GlcNAc(b1-3)Gal(b1-4)GlcNAc(b1-3)Gal(b1-4)GlcNAc(b1-3)Gal(b1-4)GlcNAc(b1-3)Gal(b1-4)GlcNAc(b1-6)]Man(a1-6)[Gal(b1-4)GlcNAc(b1-3)Gal(b1-4)GlcNAc(b1-3)Gal(b1-4)GlcNAc(b1-3)Gal(b1-4)GlcNAc(b1-3)Gal(b1-4)GlcNAc(b1-2)Man(a1-3)]Man(b1-4)GlcNAc(b1-4)[Fuc(a1-6)]GlcNAc
# Outline: as §1
# [13] = target: Gal(b1-4)GlcNAc(b1-3)Gal(b1-4)GlcNAc(b1-3)Gal(b1-4)GlcNAc(b1-3)Gal(b1-4)GlcNAc(b1-3)Gal(b1-4)GlcNAc(b1-3)Gal(b1-4)GlcNAc(b1-2)Man(a1-3)[Gal(b1-4)GlcNAc(b1-3)Gal(b1-4)GlcNAc(b1-3)Gal(b1-4)GlcNAc(b1-3)Gal(b1-4)GlcNAc(b1-3)Gal(b1-4)GlcNAc(b1-3)Gal(b1-4)GlcNAc(b1-2)Man(a1-6)]Man(b1-4)GlcNAc(b1-4)GlcNAc
# Outline: as §1
# [14] = target: Gal(b1-4)GlcNAc(b1-3)Gal(b1-4)GlcNAc(b1-3)GalNAc
# Outline: as §1
# [15] = target: Gal(b1-4)GlcNAc(b1-3)Gal(b1-4)GlcNAc(b1-3)[Gal(b1-4)GlcNAc(b1-3)Gal(b1-4)GlcNAc(b1-6)]GalNAc
# Outline: as §1
# [16] = target: Gal(b1-4)GlcNAc(b1-3)Gal(b1-4)GlcNAc(b1-6)[Gal(b1-3)]GalNAc
# Outline: as §1
# [17] = target: Gal(b1-4)GlcNAc(b1-3)Gal(b1-4)[Fuc(a1-3)]GlcNAc(b1-3)Gal(b1-4)[Fuc(a1-3)]GlcNAc
# Outline: as §1
# [18] = target: Gal(b1-4)GlcNAc(b1-3)GalNAc
# Outline: as §1
# [19] = target: Gal(b1-4)GlcNAc(b1-3)[Fuc(a1-3)GlcNAc(b1-6)]Gal(b1-4)Glc
# Outline: as §1
# [20] = target: Gal(b1-4)GlcNAc(b1-3)[Gal(b1-4)GlcNAc(b1-6)]Gal(b1-4)GlcNAc
# Outline: as §1
# [21] = target: Gal(b1-4)GlcNAc(b1-3)[GlcNAc(b1-6)]Gal(b1-4)GlcNAc
# Outline: as §1
# [22] = target: Gal(b1-4)GlcNAc(b1-6)Gal(b1-4)GlcNAc
# Outline: as §1
# [23] = target: Gal(b1-4)GlcNAc(b1-6)GalNAc
# Outline: as §1
# [24] = target: Gal(b1-4)GlcNAc(b1-6)[Gal(b1-3)]GalNAc
# Outline: as §1
# [25] = target: Gal(b1-4)GlcNAc(b1-6)[Gal(b1-4)GlcNAc(b1-3)]GalNAc
# Outline: as §1
# Gal(b1-4)GlcNAc6P = target: Gal(b1-4)GlcNAc6P
# Outline: as §1
# Gal(b1-6)Gal = target: Gal(b1-6)Gal
# Outline: as §1
# Gal3S(b1-3)GalNAc = target: Gal3S(b1-3)GalNAc
# Outline: as §1
# Gal3S(b1-3)GlcNAc = target: Gal3S(b1-3)GlcNAc
# Outline: as §1
# [26] = target: Gal3S(b1-3)[Fuc(a1-4)]GlcNAc
# Outline: as §1
# Gal3S(b1-4)Glc = target: Gal3S(b1-4)Glc
# Outline: as §1
# Gal3S(b1-4)Glc6S = target: Gal3S(b1-4)Glc6S
# Outline: as §1
# Gal3S(b1-4)GlcNAc = target: Gal3S(b1-4)GlcNAc
# Outline: as §1
# [27] = target: Gal3S(b1-4)[Fuc(a1-3)]Glc6S
# Outline: as §1
# [28] = target: Gal3S(b1-4)[Fuc(a1-3)]GlcNAc
# Outline: as §1
# [29] = target: Gal3S(b1-4)[Fuc(a1-3)]GlcNAc6S
# Outline: as §1
# Gal3S4S(b1-4)GlcNAc = target: Gal3S4S(b1-4)GlcNAc
# Outline: as §1
# Gal3S6S(b1-4)GlcNAc = target: Gal3S6S(b1-4)GlcNAc
# Outline: as §1
# Gal3S6S(b1-4)GlcNAc6S = target: Gal3S6S(b1-4)GlcNAc6S
# Outline: as §1
# Gal4S(b1-4)GlcNAc = target: Gal4S(b1-4)GlcNAc
# Outline: as §1
# Gal4S6S(b1-4)GlcNAc = target: Gal4S6S(b1-4)GlcNAc
# Outline: as §1
# Gal6P(b1-4)GlcNAc = target: Gal6P(b1-4)GlcNAc
# Outline: as §1
# Gal6S(b1-3)GlcNAc = target: Gal6S(b1-3)GlcNAc
# Outline: as §1
# Gal6S(b1-3)GlcNAc6S = target: Gal6S(b1-3)GlcNAc6S
# Outline: as §1
# Gal6S(b1-4)Glc = target: Gal6S(b1-4)Glc
# Outline: as §1
binder,measurement,setting,value
B1,glycan array binding signal (z-score),[1],2.04
same,glycan array binding signal (z-score),[2],-0.263
same,glycan array binding signal (z-score),[3],-0.913
same,glycan array binding signal (z-score),[4],0.044
same,glycan array binding signal (z-score),[5],-0.694
same,glycan array binding signal (z-score),[6],-0.442
same,glycan array binding signal (z-score),[7],-0.444
same,glycan array binding signal (z-score),[8],-0.114
same,glycan array binding signal (z-score),[9],-0.633
same,glycan array binding signal (z-score),[10],-0.328
same,glycan array binding signal (z-score),[11],0.018
same,glycan array binding signal (z-score),[12],-0.364
same,glycan array binding signal (z-score),[13],-0.635
same,glycan array binding signal (z-score),[14],-0.462
same,glycan array binding signal (z-score),[15],-0.671
same,glycan array binding signal (z-score),[16],0.079
same,glycan array binding signal (z-score),[17],-0.172
same,glycan array binding signal (z-score),[18],-0.267
same,glycan array binding signal (z-score),[19],-0.582
same,glycan array binding signal (z-score),[20],0.052
same,glycan array binding signal (z-score),[21],-0.238
same,glycan array binding signal (z-score),[22],-0.147
same,glycan array binding signal (z-score),[23],0.27
same,glycan array binding signal (z-score),[24],0.263
same,glycan array binding signal (z-score),[25],-0.293
same,glycan array binding signal (z-score),Gal(b1-4)GlcNAc6P,2.57
same,glycan array binding signal (z-score),Gal(b1-6)Gal,0.915
same,glycan array binding signal (z-score),Gal3S(b1-3)GalNAc,1.57
same,glycan array binding signal (z-score),Gal3S(b1-3)GlcNAc,1.45
same,glycan array binding signal (z-score),[26],0.934
same,glycan array binding signal (z-score),Gal3S(b1-4)Glc,1.81
same,glycan array binding signal (z-score),Gal3S(b1-4)Glc6S,1.63
same,glycan array binding signal (z-score),Gal3S(b1-4)GlcNAc,1.59
same,glycan array binding signal (z-score),[27],-0.32
same,glycan array binding signal (z-score),[28],0.106
same,glycan array binding signal (z-score),[29],3.08
same,glycan array binding signal (z-score),Gal3S4S(b1-4)GlcNAc,0.998
same,glycan array binding signal (z-score),Gal3S6S(b1-4)GlcNAc,2.75
same,glycan array binding signal (z-score),Gal3S6S(b1-4)GlcNAc6S,0.062
same,glycan array binding signal (z-score),Gal4S(b1-4)GlcNAc,-0.195
same,glycan array binding signal (z-score),Gal4S6S(b1-4)GlcNAc,0.386
same,glycan array binding signal (z-score),Gal6P(b1-4)GlcNAc,-0.539
same,glycan array binding signal (z-score),Gal6S(b1-3)GlcNAc,-0.735
same,glycan array binding signal (z-score),Gal6S(b1-3)GlcNAc6S,0.489
same,glycan array binding signal (z-score),Gal6S(b1-4)Glc,-0.221

# Rewritten with bars between the fields: entries from further up
binder | measurement | setting | value
B1 | glycan array binding signal (z-score) | Gal3S6S(b1-4)GlcNAc | 2.75
same | glycan array binding signal (z-score) | Gal3S6S(b1-4)GlcNAc6S | 0.062
same | glycan array binding signal (z-score) | Gal4S(b1-4)GlcNAc | -0.195
